{"source": "patent US20150110862A1", "about": "“Sweet Gum Fruit Extract as a Therapeutic Agent” (Board of Supervisors of Louisiana State University and …, priority 2007, published 2015)", "origin": "cited, not measured here", "tested_on": "p70S6k phosphorylation and renal enlargement", "conditions": "intraperitoneal injection, literature", "note": "At least one compound was matched to its structure with a doubt left."}
{"smiles": "CO[C@H]1C[C@@H]2CC[C@@H](C)[C@@](O)(O2)C(=O)C(=O)N2CCCC[C@H]2C(=O)O[C@H]([C@H](C)C[C@@H]2CC[C@@H](O)[C@H](OC)C2)CC(=O)[C@H](C)/C=C(\\C)[C@@H](O)[C@@H](OC)C(=O)[C@H](C)C[C@H](C)/C=C/C=C/C=C/1C", "note": "[rapamycin]", "values": [{"measurement": "enhanced phosphorylation of p70S6k and subsequent renal enlargement", "value": "markedly attenuated"}]}
